Results are given in words; binding and its absence hold for the method and conditions named. In cells and extracts the contact can be indirect. Here binding means that the protein was enriched with, or labelled near, the bait; the list need not be complete.
Molecular target: Hypoxia-inducible factor-1α (HIF-1α) (human (endogenous in MDA-MB-231)) (UniProt Q16665)
Assay: affinity purification with mass spectrometry; RIME: MDA-MB-231 cells treated with DMOG (1 mM) or DMSO for 8 h, cross-linked with 1% formaldehyde, nuclear fraction sonicated, immunoprecipitated with bead-prebound HIF-1α antibody; a single sample for each condition

Sequences of proteins named here, by UniProt entry; tags and fusion partners are left off.
UniProt Q16665: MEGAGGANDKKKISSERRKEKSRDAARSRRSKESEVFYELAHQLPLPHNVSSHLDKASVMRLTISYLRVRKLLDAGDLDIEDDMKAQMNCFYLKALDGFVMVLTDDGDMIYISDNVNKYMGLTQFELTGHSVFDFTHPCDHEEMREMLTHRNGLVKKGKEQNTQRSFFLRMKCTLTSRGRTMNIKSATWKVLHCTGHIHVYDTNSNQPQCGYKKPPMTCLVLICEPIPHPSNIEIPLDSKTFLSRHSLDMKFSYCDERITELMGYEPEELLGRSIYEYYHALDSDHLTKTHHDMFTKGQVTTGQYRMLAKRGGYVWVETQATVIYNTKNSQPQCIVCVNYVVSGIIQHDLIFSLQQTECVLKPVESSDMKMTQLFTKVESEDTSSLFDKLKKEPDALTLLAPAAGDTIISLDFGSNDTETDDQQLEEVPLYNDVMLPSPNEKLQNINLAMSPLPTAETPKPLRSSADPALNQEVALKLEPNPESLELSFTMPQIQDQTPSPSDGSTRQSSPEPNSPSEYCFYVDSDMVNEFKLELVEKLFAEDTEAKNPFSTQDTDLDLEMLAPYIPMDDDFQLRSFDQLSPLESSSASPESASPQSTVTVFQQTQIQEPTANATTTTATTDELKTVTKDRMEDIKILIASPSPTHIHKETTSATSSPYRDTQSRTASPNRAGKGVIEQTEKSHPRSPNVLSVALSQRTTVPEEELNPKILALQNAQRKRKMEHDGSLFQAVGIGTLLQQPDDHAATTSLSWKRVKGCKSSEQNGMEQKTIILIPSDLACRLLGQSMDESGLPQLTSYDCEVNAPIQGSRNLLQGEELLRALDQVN
UniProt P09874: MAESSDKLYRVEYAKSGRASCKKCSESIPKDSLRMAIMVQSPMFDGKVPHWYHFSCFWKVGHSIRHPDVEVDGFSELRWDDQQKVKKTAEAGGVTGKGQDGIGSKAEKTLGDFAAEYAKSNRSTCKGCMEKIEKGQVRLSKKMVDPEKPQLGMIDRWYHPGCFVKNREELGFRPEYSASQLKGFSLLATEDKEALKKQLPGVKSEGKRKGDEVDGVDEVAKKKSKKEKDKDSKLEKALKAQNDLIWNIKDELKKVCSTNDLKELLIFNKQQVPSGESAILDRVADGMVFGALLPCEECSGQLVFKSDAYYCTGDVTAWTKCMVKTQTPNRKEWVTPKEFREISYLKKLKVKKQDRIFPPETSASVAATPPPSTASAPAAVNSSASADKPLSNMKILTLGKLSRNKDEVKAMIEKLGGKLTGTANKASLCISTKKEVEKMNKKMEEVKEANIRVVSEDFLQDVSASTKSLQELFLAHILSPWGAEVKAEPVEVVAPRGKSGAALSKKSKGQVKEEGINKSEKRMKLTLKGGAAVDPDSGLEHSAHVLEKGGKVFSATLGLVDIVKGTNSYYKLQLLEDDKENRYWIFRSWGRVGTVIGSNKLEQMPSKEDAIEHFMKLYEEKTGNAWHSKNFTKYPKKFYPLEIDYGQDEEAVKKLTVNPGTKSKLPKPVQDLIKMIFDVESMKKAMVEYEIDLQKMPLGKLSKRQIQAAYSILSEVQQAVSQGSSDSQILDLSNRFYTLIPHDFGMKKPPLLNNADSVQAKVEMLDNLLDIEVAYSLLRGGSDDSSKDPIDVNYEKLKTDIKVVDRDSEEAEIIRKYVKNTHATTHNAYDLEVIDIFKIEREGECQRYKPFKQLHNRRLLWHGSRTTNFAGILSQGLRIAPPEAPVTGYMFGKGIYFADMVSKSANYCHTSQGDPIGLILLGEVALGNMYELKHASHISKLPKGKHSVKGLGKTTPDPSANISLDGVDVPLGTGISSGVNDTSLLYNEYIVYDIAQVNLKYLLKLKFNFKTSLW
UniProt P14618: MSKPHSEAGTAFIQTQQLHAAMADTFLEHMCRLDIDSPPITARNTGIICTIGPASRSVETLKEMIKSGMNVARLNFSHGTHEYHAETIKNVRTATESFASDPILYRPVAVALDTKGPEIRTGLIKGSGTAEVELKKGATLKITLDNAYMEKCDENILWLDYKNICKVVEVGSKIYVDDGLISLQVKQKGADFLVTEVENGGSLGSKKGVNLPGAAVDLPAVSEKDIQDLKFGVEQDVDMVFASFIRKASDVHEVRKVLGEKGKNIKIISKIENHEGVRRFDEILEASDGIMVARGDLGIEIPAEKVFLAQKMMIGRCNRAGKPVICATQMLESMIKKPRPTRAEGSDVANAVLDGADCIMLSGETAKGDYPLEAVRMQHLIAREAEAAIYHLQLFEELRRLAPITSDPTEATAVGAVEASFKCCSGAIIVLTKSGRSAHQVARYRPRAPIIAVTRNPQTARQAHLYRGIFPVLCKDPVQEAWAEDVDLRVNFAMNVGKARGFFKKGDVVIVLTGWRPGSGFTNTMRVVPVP
UniProt Q9Y265: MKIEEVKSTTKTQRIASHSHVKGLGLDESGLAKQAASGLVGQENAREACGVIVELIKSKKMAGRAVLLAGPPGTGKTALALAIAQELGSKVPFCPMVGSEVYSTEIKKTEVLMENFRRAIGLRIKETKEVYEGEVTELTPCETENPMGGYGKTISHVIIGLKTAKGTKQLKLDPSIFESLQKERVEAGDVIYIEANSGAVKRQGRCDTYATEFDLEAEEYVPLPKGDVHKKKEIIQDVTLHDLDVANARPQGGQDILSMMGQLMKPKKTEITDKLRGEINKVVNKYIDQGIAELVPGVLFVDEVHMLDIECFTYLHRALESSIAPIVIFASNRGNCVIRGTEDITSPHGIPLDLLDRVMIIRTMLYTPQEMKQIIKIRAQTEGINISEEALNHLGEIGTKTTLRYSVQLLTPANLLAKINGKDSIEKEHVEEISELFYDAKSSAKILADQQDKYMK
UniProt Q13263: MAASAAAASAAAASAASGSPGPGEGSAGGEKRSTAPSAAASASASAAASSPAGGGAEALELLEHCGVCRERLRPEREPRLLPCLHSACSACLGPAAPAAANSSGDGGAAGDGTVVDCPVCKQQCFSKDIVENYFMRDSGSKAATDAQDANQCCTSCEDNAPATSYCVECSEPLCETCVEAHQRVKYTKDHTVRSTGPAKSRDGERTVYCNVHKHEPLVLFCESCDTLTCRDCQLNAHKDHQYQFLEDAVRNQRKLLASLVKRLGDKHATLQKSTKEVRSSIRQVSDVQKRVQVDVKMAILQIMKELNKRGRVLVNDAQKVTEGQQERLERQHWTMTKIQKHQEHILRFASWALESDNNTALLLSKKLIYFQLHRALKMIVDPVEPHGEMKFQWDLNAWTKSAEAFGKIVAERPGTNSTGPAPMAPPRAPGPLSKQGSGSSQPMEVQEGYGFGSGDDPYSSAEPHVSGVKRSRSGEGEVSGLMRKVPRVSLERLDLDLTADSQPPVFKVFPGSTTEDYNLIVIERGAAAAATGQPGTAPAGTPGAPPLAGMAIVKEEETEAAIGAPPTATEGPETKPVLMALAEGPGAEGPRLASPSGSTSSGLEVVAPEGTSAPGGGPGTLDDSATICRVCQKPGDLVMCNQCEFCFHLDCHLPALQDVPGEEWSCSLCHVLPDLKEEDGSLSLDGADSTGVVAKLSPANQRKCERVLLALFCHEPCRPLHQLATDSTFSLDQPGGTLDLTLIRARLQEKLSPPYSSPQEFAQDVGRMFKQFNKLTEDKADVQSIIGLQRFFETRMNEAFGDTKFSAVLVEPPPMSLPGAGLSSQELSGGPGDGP

Row | binding | Substance
1 | binds | DNA-dependent protein kinase catalytic subunit (DNA-PKcs) (from UniProt P78527 1-4128)
2 | binds | KU70 (from UniProt P12956 1-609)
3 | binds | KU86 (from UniProt P13010 1-732)
4 | binds | PARP1 (from UniProt P09874 1-1014)
5 | binds | PKM (from UniProt P14618 1-531)
6 | binds | RUVBL1/PONTIN (from UniProt Q9Y265 1-456)
7 | binds | Tripartite motif containing protein 28 (TRIM28) (from UniProt Q13263 1-835)
